Experimental findings from publication PMC3068133 are described below.

In test [1] the target is constitutively active Myc-PTK6 YF (human) (UniProt Q13882). As to the kind of experiment: co-IP; HEK293 co-transfected with a constant amount of PTK6 YF and increasing amounts of ALT-PTK6; 500 µg of total cell lysate, 1 µg of mouse anti-Myc-tag; immunoblotting (phosphotyrosine 4G10 + PY20, Myc tag). On the technique in general: Immunoblotting shows a protein as a band on a membrane.

Test [2] has as its target GST-ALT-PTK6 fusion protein (human) (UniProt Q13882). As to the kind of experiment: pull-down; GST or GST-ALT-PTK6 fusion protein incubated with PC3 total cell lysates; bound proteins detected by immunoblotting; only the target purified.

No constants are given. Whether binding was seen depends on the method and setting. Binding seen in cells or lysates may run through a third protein. Some binding calls cover weakened binding; strength is not graded here.

“Myc-epitope tagged ALT-PTK6 (from UniProt Q13882-2 1-134)”: the binding entry in test [1] was “no binding”.

Regarding β-catenin (from UniProt P35222 1-781), in test [2], the binding result is “binds”.
